According to PubChem BioAssay AID1794845 (National Center for Advancing Translational Sciences (NCATS), 2023):
Fewer than 10 of roughly 6,900 compounds were called active. The call rests on the fitted dose curve; in most records, active means well fitted curve in the direction sought with a large enough effect; inconclusive means small, poorly fitted or top-dose-only effect, or another doubt; inactive means no such curve, though single readings can be large or run the other way. Some of the results follow.

The chains behind the UniProt entries cited, without tags or fusion partners. Where a name states a change or a piece, a line headed by the entry shows the natural chain unless it says otherwise.
UniProt C7C422: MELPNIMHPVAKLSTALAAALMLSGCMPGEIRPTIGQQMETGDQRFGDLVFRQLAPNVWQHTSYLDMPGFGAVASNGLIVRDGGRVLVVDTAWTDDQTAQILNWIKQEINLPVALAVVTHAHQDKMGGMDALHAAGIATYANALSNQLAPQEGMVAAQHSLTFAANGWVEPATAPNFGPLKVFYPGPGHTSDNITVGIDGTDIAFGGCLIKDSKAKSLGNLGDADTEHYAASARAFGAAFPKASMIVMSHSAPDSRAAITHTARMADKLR

molecular target: Metallo-beta-lactamase type 2 (Klebsiella pneumoniae) (UniProt C7C422); assay: qHTS to identify inhibitors of the New Delhi Metallo-beta-lactamase (NDM): primary screen against the NCATS Gemini Collection; details: NDM-1 enzyme, meropenem hydrolysis, absorbance 300 nm; at 38.4 µM (top of the series) unless noted; further: % of control where 0% means no effect
How it was run: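 Meropenem hydrolysis (50 uM final) by 2 nM NDM-1 read as 300 nm absorbance after 30 min, following >30 min compound–enzyme preincubation in HEPES pH 7.0 with 1 uM ZnSO4 and 0.01% Tween20.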

Activity % (negative = inhibition), inactive:
O=C(c1ccccc1)N1CCC2(CC(Cc3ccccc3)=NO2)C1 (stereo unspecified) 9.1% [at 57.5 µM]
Cn1cccc1-c1noc(C2CCN(C(=O)CCn3cnc4ccccc43)C2)n1 (stereo unspecified) 4.07%
Cc1cccc(OCC(=O)NCc2nnc3c(-c4nc(C)no4)cccn23)c1 4.07%
CN(C)C(=O)C1=NOC2CN(C(=O)C3CC3)CC12 (stereo unspecified) 2.65% [at 57.5 µM]
CC(C)Cn1c(CN(C)CCC2CCCCO2)cnc1S(=O)(=O)Cc1ccccc1 (stereo unspecified) -0.11%
COc1ccc(CNCC2(CO)C[C@@H](O)[C@@H](O)C2)cc1 (stereo partly specified) -1.42% [at 77.1 µM]
COc1ccccc1Oc1ncccc1CNC(=O)Nc1cccc(C#N)c1 0.348%
COc1ccccc1-c1[nH]nc2ncc(C(=O)N3CCN(Cc4ccccc4)CC3)nc12 11.1% [at 57.5 µM]
O=C(NCC(F)(F)F)c1ccc2nnc(-c3cncc(Cl)c3)n2c1 9.5%
COc1ccccc1CC(=O)N1CCC(n2nccc2NC(=O)c2ccccc2C)CC1 -2.18%
CCOC(=O)N1CCC2(CC1)N=C(CCC(C)C)NC2=O 6.73%
CN(C(=O)CCS(=O)(=O)c1ccccc1)C1CCc2nn(C)c(=O)n2CC1 (stereo unspecified) 3.34%
CCc1cc(NCC(c2ccc(C)o2)N2CCOCC2)n2nccc2n1 (stereo unspecified) 0.529%
Cc1ccc(C2=NC3(CCN(C(=O)c4cnccn4)CC3)ON2)cc1 59.8%
Cc1ccc([S+](=O)([O-])NC2CCN(Cc3ccc(-c4ccsc4)cc3)C2)cc1 (stereo unspecified) 3.54%
O=C(c1cc(-c2ccccc2)nc2ccccc12)N1CCOCC(CO)C1 (stereo unspecified) 9.55%
COC1C(=O)N(C2CCN(C(=O)C3CC3)CC2)C12CCOCC2 (stereo unspecified) 11.7%
O=[S+]1([O-])NC2(CCN(Cc3ccncc3)CC2)CNc2ccccc21 0.184%
O=C1CCC2(CCCN(C(=O)c3ccc(=O)[nH]c3)C2)CN1CCc1cnc[nH]1 (stereo unspecified) 4.3%
Cc1noc(C)c1S(=O)(=O)N1CCC[C@H]1C(=O)N1CCCCCCNC(=O)CC1 32.3%
CCOCCCNC(=O)N1CCC2(CC1)CC(N(Cc1ccc(F)cc1)C1CC1)CCO2 (stereo unspecified) -0.207%
CNC(=O)N1CCC(C2CCN(C(=O)Cn3cccn3)C2)CC1 (stereo unspecified) -0.322%
CCn1ccc(C(=O)N2CC(c3nc(CCOCC4CC4)no3)C2)n1 -0.382%
O=C(N1CCCCC1)N1CCN(c2cc(Cl)ncn2)C(=O)C1 2.24%
O=C(NCc1ccc(F)c(F)c1)C1CN(C2CCCC2)C(=O)N1 (stereo unspecified) 7.46% [at 57.5 µM]
COCCOc1cc(-c2noc([C@@H]3CCCN3C3CCN(C(C)=O)CC3)n2)ccn1 2.93% [at 57.5 µM]
COCC(=O)N[C@H]1C[C@@H](CO)N(Cc2scnc2C)C1 1.25%
O=C(c1cc(-c2cccnc2)c2nncn2n1)N1CCOCC1 9.61%
CC(C)n1cc(-c2cc(C(=O)N(C)Cc3cccnc3)c3cc(F)ccc3n2)cn1 -0.153%
O=C(O)CO[C@@H]1COCC[C@H]1NC(=O)c1cc2c(s1)CCCCC2 16.1%
COCc1nc(CCNC(=O)NCCc2ccccc2)no1 -3.25%
O=C(c1ccon1)N1CCN(Cc2cnn3cccnc23)CC(O)C1 (stereo unspecified) 1.39%
COCCOCc1nc(C2CCCN2S(=O)(=O)Cc2ccccc2)no1 (stereo unspecified) -3.89%
CCCC1(CO)CCCN(Cc2nnc(-c3cccc(F)c3)o2)C1 (stereo unspecified) 6.36%
Cn1c(C(=O)NCCN2CCCCC2)cc2c1CCN(Cc1cccc(F)c1)C2 0.485%
Cc1ccccc1C(=O)N1C(C(=O)NCc2ccccc2)COC12CCN(C(=O)c1ccco1)CC2 (stereo unspecified) 0.886%
COCc1nc(CCNC(=O)NC2CCCCC2)no1 0.875%
COc1ccc(NC(=O)N2CCCC(CN3CCC(C)CC3)CC2)cc1 (stereo unspecified) 0.0571%
COc1ccc(-c2nc(N3CCOCC3)cc3c2CN(Cc2ccccc2)C3=O)cn1 2.36% [at 57.5 µM]
COc1ccc(CNc2cc3c(cn2)CN(Cc2ccccc2)CCN3)cc1OC 2.49% [at 57.5 µM]
O=C(c1ccncc1)N1CC2CCC(C1)N2Cc1ccc(-c2cccs2)cc1 6.08%
Cc1ccc(CS(=O)(=O)NC2CCc3n[nH]c(=O)n3CC2)cc1C (stereo unspecified) 0.0609%
COc1ccc(CCc2nc(-c3nnn4c3COC(c3ccc(Cl)cc3)C4)no2)cc1 (stereo unspecified) 2%
O=C(c1ccccc1)N1CCC(Oc2cccc(F)c2)(C(=O)O)CC1 16.9%
COCCN[C@H]1[C@@H]2OC[C@@H](O2)[C@@H](NC(=O)Nc2ccc(OC)cc2)[C@@H]1O 18.9% [at 57.5 µM]
O=C(CCn1ccn2nc3c(c2c1=O)CCCC3)Nc1ccc(F)cc1F 5.61%
CCN1CCC(CC(=O)N2CCC(C3CCN(C(=O)NC)CC3)C2)CC1 (stereo unspecified) 26.7%
CNc1ccc(C)cc1C(=O)N1CCN(C)C2(CCN(C)CC2)C1 2.68%
CN(C)C(=O)c1n[nH]c2c1CN(C(=O)c1ccccc1Br)CC2 13.8%
C#CCN(Cc1ccco1)Cc1cnc(S(C)(=O)=O)n1CCCc1ccccc1 11.4%
O=c1[nH]c(C2CCCN(Cc3cccc(Cl)c3)C2)nc2ccc(F)cc12 (stereo unspecified) -0.201%
COc1cccc(-c2ccc(CN3CCCC(NC(=O)c4ccc(Cl)cc4)C3)cc2)c1 (stereo unspecified) 1.24%
COCC(=O)N1CC(C(=O)NCCc2ccc(OC)cc2)CC(c2ccc(F)c(C)c2)C1 (stereo unspecified) 46.5%
CN1CCN(Cc2ncc[nH]2)CC12CCC(=O)N(CC(=O)O)CC2 (stereo unspecified) 0.956%
O=C(CCc1nc2ccccc2s1)NC1CCc2n[nH]c(=O)n2CC1 (stereo unspecified) -0.309%
CCN1CCC2(CCC1=O)CN(c1ncnc3c1CCC3)CCN2C (stereo unspecified) 0.0459%
CN(C)c1nccnc1OC1CCN(S(=O)(=O)c2ccccc2)C1 (stereo unspecified) 22.2%
CN1C(=O)C(c2ccccc2)CC12CCN(c1ccnc(N)n1)CC2 (stereo unspecified) 0.39%
C[S+](=O)([O-])N1CC2(Cc3ccccc3N(C(=O)Cc3ccc(F)cc3)C2)C1 11.3%
CCC(C)NC(=O)c1cccc(-c2ccc(OC)nn2)c1 (stereo unspecified) 2.77% [at 57.5 µM]
COc1cccc(CNC(=O)N[C@@H]2CN(c3ncccn3)C[C@H]2CN(C)C)c1 0.336%
Cc1nn(C)c(C)c1S(=O)(=O)N1CCC(c2noc(-c3ccccc3)n2)C1 (stereo unspecified) -4.82%
CN(C)CCO[C@H]1C[C@@H](O)C12CCN(C(=O)Cc1ccc3ccccc3c1)CC2 89.9%
O=C(N[C@H]1CCN2C(=O)N(c3cccc(C(F)(F)F)c3)C(=O)[C@@H]2C1)c1ccncc1 18.7% [at 57.5 µM]
COC(=O)CNC(=O)c1nc(-c2ccc(Cl)cc2)c2ccccn12 17.1% [at 57.5 µM]
Cc1ccc(CCNC(=O)C2CCN(c3cc(C(F)(F)F)ncn3)CC2)cc1 15.7%
CCn1nc(C(=O)N2C[C@@H](CN3CCN(C)CC3)[C@@H](CO)C2)cc1C -0.228%
CC(C)c1noc([C@@H]2Cc3nc[nH]c3CN2C(=O)CC(C)(C)CC(=O)O)n1 13.7% [at 57.5 µM]
CC(=O)N1CCc2sc(C(=O)NC3CCN(Cc4ccccc4)CC3)cc2C1 -0.293%
CC(C)N1Cc2cc(C(=O)NC3CCN(Cc4ccccc4)CC3)sc2C1 -0.112%
COC(=O)C1=CN(CC(=O)N2CCN(c3ccc(F)cc3)CC2)S(=O)(=O)N=C1C -0.268%
Cc1cc2nc3n(c(=O)c2n1CC(=O)NC1CCc2ccccc21)CCCCC3 (stereo unspecified) -1.38%
CC(C)CN(Cc1cccnc1)C1CN(C(=O)CCc2nc3ccccc3s2)C1 -0.295%
CCN1c2cc(C(=O)NCCc3ccccc3)ccc2C(=O)N2CCCCC21 (stereo unspecified) 5.51%
COC[C@@H]1CN(S(=O)(=O)c2ccc(C)cc2)C[C@H]1c1ccncc1 8.01%
O=C1COc2ccc(-c3ccoc3)nc2CN1Cc1ccccc1 24.4% [at 57.5 µM]
CCN1CCC2(CCC1=O)CN(Cc1nc(C(=O)NC)no1)CCN2C (stereo unspecified) 0.0905%
COc1ccc(CN2CCc3nc(C(=O)NCCOc4ccccc4)oc3CC2)cn1 14.7% [at 57.5 µM]
Cc1cnc(C2CC2)n1CC1CCNCC1 5.33%
CN(C)C[C@@H]1CN(C)C[C@H]1NC(=O)NCc1ccc(OC(F)(F)F)cc1 -1.09%
COc1ccccc1-c1cc(C(=O)N2CCN(c3ncccn3)CC2)nn2cccc12 14.1%
COC(=O)[C@H](NC(=O)[C@@H]1[C@@H](NC(=O)Nc2ccc(F)cc2F)CCN1C(=O)CSC)C(C)C 7.45%
Cc1cnc(C(=O)N2CCC3(CC2)C(=O)N(c2cccc(F)c2)C3c2ccccc2)cn1 (stereo unspecified) 0.971%
O=C(c1nc2ncccn2n1)N1CCCn2cc(-c3ccccc3)nc21 12.8%
CS(=O)(=O)N(Cc1cccnc1)C1CN(C(=O)C2CCCCC2)C1 -1.01%
Cn1ccc(C(=O)NCc2nnc3n2C(C(=O)N2CCN(c4ncccn4)CC2)CC3)n1 (stereo unspecified) 2.41%

Random excerpt: 3 compounds from above.
Activity % (negative = inhibition), inactive:
Cc1ccc(CS(=O)(=O)NC2CCc3n[nH]c(=O)n3CC2)cc1C (stereo unspecified) 0.0609%
Cc1noc(C)c1S(=O)(=O)N1CCC[C@H]1C(=O)N1CCCCCCNC(=O)CC1 32.3%
O=C(N[C@H]1CCN2C(=O)N(c3cccc(C(F)(F)F)c3)C(=O)[C@@H]2C1)c1ccncc1 18.7% [at 57.5 µM]
